Laboratory results as given in the supplement of paper PMC8728848.
This is one part of the list.

Columns and labels:
Assay in all cases: glycan array binding signal (z-score within array); higher = stronger binding
Conditions in all cases: glycan notation: IUPAC condensed, linker removed
[1] = target: Fuc(a1-2)Gal(b1-4)GlcNAc(b1-3)Gal(b1-4)GlcNAc(b1-3)Gal(b1-4)GlcNAc
Summary of the method: (§1)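 Columns mapping to the same glycan were averaged after glycan names were converted to IUPAC-condensed notation. The data come from 3228 arrays in the Consortium for Functional Glycomics database, limited to those with an available protein sequence. Binding is reported as a within-array Z-score averaged across arrays of one protein sequence and across linkers.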

[2] = target: Fuc(a1-2)Gal(b1-4)GlcNAc(b1-3)GalNAc
Summary of the method: as §1

[3] = target: Fuc(a1-2)Gal(b1-4)GlcNAc(b1-3)[Fuc(a1-2)Gal(b1-4)GlcNAc(b1-6)]GalNAc
Summary of the method: as §1

[4] = target: Fuc(a1-2)Gal(b1-4)GlcNAc(b1-3)[Fuc(a1-3)[Gal(b1-4)]GlcNAc(b1-6)]Gal(b1-4)Glc
Summary of the method: as §1

[5] = target: Fuc(a1-2)Gal(b1-4)GlcNAc(b1-6)GalNAc
Summary of the method: as §1

[6] = target: Fuc(a1-2)Gal(b1-4)GlcNAc6S
Summary of the method: as §1

[7] = target: Fuc(a1-2)Gal(b1-4)[Fuc(a1-3)]GlcNAc
Summary of the method: as §1

[8] = target: Fuc(a1-2)Gal(b1-4)[Fuc(a1-3)]GlcNAc(b1-2)Man(a1-3)[Fuc(a1-2)Gal(b1-4)[Fuc(a1-3)]GlcNAc(b1-2)Man(a1-6)]Man(b1-4)GlcNAc(b1-4)[Fuc(a1-6)]GlcNAc
Summary of the method: as §1

[9] = target: Fuc(a1-2)Gal(b1-4)[Fuc(a1-3)]GlcNAc(b1-2)[Fuc(a1-2)Gal(b1-4)[Fuc(a1-3)]GlcNAc(b1-4)]Man(a1-3)[Fuc(a1-2)Gal(b1-4)[Fuc(a1-3)]GlcNAc(b1-2)Man(a1-6)]Man(b1-4)GlcNAc(b1-4)GlcNAc
Summary of the method: as §1

[10] = target: Fuc(a1-2)Gal(b1-4)[Fuc(a1-3)]GlcNAc(b1-3)Gal(b1-4)[Fuc(a1-3)]GlcNAc
Summary of the method: as §1

[11] = target: Fuc(a1-2)Gal(b1-4)[Fuc(a1-3)]GlcNAc(b1-3)Gal(b1-4)[Fuc(a1-3)]GlcNAc(b1-3)Gal(b1-4)[Fuc(a1-3)]GlcNAc
Summary of the method: as §1

[12] = target: Fuc(a1-2)Gal(b1-4)[Fuc(a1-3)]GlcNAc(b1-3)GalNAc
Summary of the method: as §1

[13] = target: Fuc(a1-2)Gal(b1-4)[Fuc(a1-3)]GlcNAc(b1-3)[Neu5Ac(a2-6)Gal(b1-4)GlcNAc(b1-6)]Gal(b1-4)Glc
Summary of the method: as §1

[14] = target: Fuc(a1-2)Gal3S(b1-4)GlcNAc
Summary of the method: as §1

[15] = target: Fuc(a1-2)Gal6S(b1-3)GlcNAc
Summary of the method: as §1

[16] = target: Fuc(a1-2)Gal6S(b1-3)GlcNAc6S
Summary of the method: as §1

[17] = target: Fuc(a1-2)Gal6S(b1-4)Glc
Summary of the method: as §1

[18] = target: Fuc(a1-2)Gal6S(b1-4)Glc6S
Summary of the method: as §1

[19] = target: Fuc(a1-2)[Gal(a1-3)]Gal
Summary of the method: as §1

[20] = target: Fuc(a1-2)[Gal(a1-3)]Gal(b1-3)GalNAc
Summary of the method: as §1

[21] = target: Fuc(a1-2)[Gal(a1-3)]Gal(b1-3)GalNAc(b1-3)Gal(a1-4)Gal(b1-4)Glc
Summary of the method: as §1

[22] = target: Fuc(a1-2)[Gal(a1-3)]Gal(b1-3)GlcNAc
Summary of the method: as §1

[23] = target: Fuc(a1-2)[Gal(a1-3)]Gal(b1-3)GlcNAc(b1-2)Man(a1-3)[Fuc(a1-2)[Gal(a1-3)]Gal(b1-3)GlcNAc(b1-2)Man(a1-6)]Man(b1-4)GlcNAc(b1-4)GlcNAc
Summary of the method: as §1

[24] = target: Fuc(a1-2)[Gal(a1-3)]Gal(b1-3)GlcNAc(b1-2)Man(a1-3)[Fuc(a1-2)[Gal(a1-3)]Gal(b1-3)GlcNAc(b1-2)Man(a1-6)]Man(b1-4)GlcNAc(b1-4)[Fuc(a1-6)]GlcNAc
Summary of the method: as §1

[25] = target: Fuc(a1-2)[Gal(a1-3)]Gal(b1-3)GlcNAc(b1-3)GalNAc
Summary of the method: as §1

[26] = target: Fuc(a1-2)[Gal(a1-3)]Gal(b1-3)GlcNAc(b1-6)GalNAc
Summary of the method: as §1

[27] = target: Fuc(a1-2)[Gal(a1-3)]Gal(b1-4)Glc
Summary of the method: as §1

[28] = target: Fuc(a1-2)[Gal(a1-3)]Gal(b1-4)GlcNAc
Summary of the method: as §1

[29] = target: Fuc(a1-2)[Gal(a1-3)]Gal(b1-4)GlcNAc(b1-2)Man
Summary of the method: as §1

[30] = target: Fuc(a1-2)[Gal(a1-3)]Gal(b1-4)GlcNAc(b1-2)Man(a1-3)[Fuc(a1-2)[Gal(a1-3)]Gal(b1-4)GlcNAc(b1-2)Man(a1-6)]Man(b1-4)GlcNAc(b1-4)GlcNAc
Summary of the method: as §1

[31] = target: Fuc(a1-2)[Gal(a1-3)]Gal(b1-4)GlcNAc(b1-2)Man(a1-3)[Fuc(a1-2)[Gal(a1-3)]Gal(b1-4)GlcNAc(b1-2)Man(a1-6)]Man(b1-4)GlcNAc(b1-4)[Fuc(a1-6)]GlcNAc
Summary of the method: as §1

[32] = target: Fuc(a1-2)[Gal(a1-3)]Gal(b1-4)GlcNAc(b1-3)GalNAc
Summary of the method: as §1

[33] = target: Fuc(a1-2)[Gal(a1-3)]Gal(b1-4)GlcNAc(b1-3)[Fuc(a1-2)[Gal(a1-3)]Gal(b1-4)GlcNAc(b1-6)]GalNAc
Summary of the method: as §1

[34] = target: Fuc(a1-2)[Gal(a1-3)]Gal(b1-4)GlcNAc(b1-6)GalNAc
Summary of the method: as §1

[35] = target: Fuc(a1-2)[Gal(a1-3)]Gal(b1-4)[Fuc(a1-3)]Glc
Summary of the method: as §1

[36] = target: Fuc(a1-2)[Gal(a1-3)]Gal(b1-4)[Fuc(a1-3)]GlcNAc
Summary of the method: as §1

[37] = target: Fuc(a1-2)[Gal(a1-3)]Gal(b1-4)[Fuc(a1-3)]GlcNAc(b1-3)GalNAc
Summary of the method: as §1

[38] = target: Fuc(a1-2)[Gal(a1-4)]Gal(b1-4)GlcNAc
Summary of the method: as §1

[39] = target: Fuc(a1-2)[GalNAc(a1-3)]Gal
Summary of the method: as §1

[40] = target: Fuc(a1-2)[GalNAc(a1-3)]Gal(b1-3)GalNAc(a1-3)[Fuc(a1-2)]Gal(b1-4)GlcNAc
Summary of the method: as §1

[41] = target: Fuc(a1-2)[GalNAc(a1-3)]Gal(b1-3)GalNAc(b1-3)Gal(a1-4)Gal(b1-4)Glc
Summary of the method: as §1

[42] = target: Fuc(a1-2)[GalNAc(a1-3)]Gal(b1-3)GlcNAc
Summary of the method: as §1

[43] = target: Fuc(a1-2)[GalNAc(a1-3)]Gal(b1-3)GlcNAc(b1-2)Man(a1-3)[Fuc(a1-2)[GalNAc(a1-3)]Gal(b1-3)GlcNAc(b1-2)Man(a1-6)]Man(b1-4)GlcNAc(b1-4)GlcNAc
Summary of the method: as §1

[44] = target: Fuc(a1-2)[GalNAc(a1-3)]Gal(b1-3)GlcNAc(b1-2)Man(a1-3)[Fuc(a1-2)[GalNAc(a1-3)]Gal(b1-3)GlcNAc(b1-2)Man(a1-6)]Man(b1-4)GlcNAc(b1-4)[Fuc(a1-6)]GlcNAc
Summary of the method: as §1

[45] = target: Fuc(a1-2)[GalNAc(a1-3)]Gal(b1-3)GlcNAc(b1-3)GalNAc
Summary of the method: as §1

B1: Clone646PsrP (Streptococcus pneumoniae) (protein)
chain: MDHHHHHHHHASENLYFQGAPAINASLNIAKSETKVYTGEGVDSVYRVPIYYKLKVTNDGSKLTFTYTVTYVNPKTNDLGNISSMRPGYSIYNSGTSTQTMLTLGSDLGKPSGVKNYITDKNGRQVLSYNTSTMTTQGSGYTWGNGAQMNGFFAKKGYGLTSSWTVPITGTDTSFTFTPYAARTDRIGINYFNGGGKVVESSTTSQSLSQSKSLSVSAS
B1 was tested. Which “glycan array binding signal (z-score)” value [1] did it give?
The value was -0.673.

What about the “glycan array binding signal (z-score)” value [2] of the same binder?
The value was 0.185.

And the “glycan array binding signal (z-score)” value [3]?
The value was -0.099.

And the “glycan array binding signal (z-score)” value [4]?
The value was -0.916.

What about the “glycan array binding signal (z-score)” value [5] of the same binder?
The value was 2.58.

What about the “glycan array binding signal (z-score)” value [6] of the same binder?
Its value is 0.348.

What about the “glycan array binding signal (z-score)” value [7] of the same binder?
The value was 0.085.

And the “glycan array binding signal (z-score)” value [8]?
Its value is 0.096.

And the “glycan array binding signal (z-score)” value [9]?
The value was 0.297.

And the “glycan array binding signal (z-score)” value [10]?
Its value is -0.894.

And the “glycan array binding signal (z-score)” value [11]?
Its value is -0.461.

And the “glycan array binding signal (z-score)” value [12]?
Its value is 0.715.

What about the “glycan array binding signal (z-score)” value [13] of the same binder?
Its value is -0.41.

And the “glycan array binding signal (z-score)” value [14]?
Its value is -0.631.

And the “glycan array binding signal (z-score)” value [15]?
Its value is 1.58.

What about the “glycan array binding signal (z-score)” value [16] of the same binder?
Its value is 1.91.

What about the “glycan array binding signal (z-score)” value [17] of the same binder?
The value was -0.239.

What about the “glycan array binding signal (z-score)” value [18] of the same binder?
Its value is -0.095.

What about the “glycan array binding signal (z-score)” value [19] of the same binder?
The value was -0.314.

And the “glycan array binding signal (z-score)” value [20]?
Its value is 0.128.

And the “glycan array binding signal (z-score)” value [21]?
Its value is 1.02.

And the “glycan array binding signal (z-score)” value [22]?
Its value is 2.

And the “glycan array binding signal (z-score)” value [23]?
Its value is -0.845.

What about the “glycan array binding signal (z-score)” value [24] of the same binder?
Its value is 1.03.

And the “glycan array binding signal (z-score)” value [25]?
The value was -0.402.

What about the “glycan array binding signal (z-score)” value [26] of the same binder?
The value was 0.206.

What about the “glycan array binding signal (z-score)” value [27] of the same binder?
The value was 0.601.

And the “glycan array binding signal (z-score)” value [28]?
The value was 0.518.

What about the “glycan array binding signal (z-score)” value [29] of the same binder?
Its value is -0.252.

What about the “glycan array binding signal (z-score)” value [30] of the same binder?
The value was -0.443.

What about the “glycan array binding signal (z-score)” value [31] of the same binder?
Its value is -0.348.

What about the “glycan array binding signal (z-score)” value [32] of the same binder?
Its value is -0.899.

And the “glycan array binding signal (z-score)” value [33]?
Its value is 0.786.

What about the “glycan array binding signal (z-score)” value [34] of the same binder?
The value was -0.36.

And the “glycan array binding signal (z-score)” value [35]?
The value was -0.984.

What about the “glycan array binding signal (z-score)” value [36] of the same binder?
The value was 0.904.

And the “glycan array binding signal (z-score)” value [37]?
Its value is -0.641.

What about the “glycan array binding signal (z-score)” value [38] of the same binder?
Its value is 0.495.

What about the “glycan array binding signal (z-score)” value [39] of the same binder?
Its value is -0.526.

What about the “glycan array binding signal (z-score)” value [40] of the same binder?
The value was -0.659.

And the “glycan array binding signal (z-score)” value [41]?
The value was 0.209.

And the “glycan array binding signal (z-score)” value [42]?
The value was 0.121.

And the “glycan array binding signal (z-score)” value [43]?
Its value is -0.761.

What about the “glycan array binding signal (z-score)” value [44] of the same binder?
The value was -1.

And the “glycan array binding signal (z-score)” value [45]?
Its value is -0.123.
